Binding data for 4 molecules are collected here from PMC11930424.

Sequences of proteins named here, by UniProt entry; tags and fusion partners are left off.
UniProt Q8N6T7: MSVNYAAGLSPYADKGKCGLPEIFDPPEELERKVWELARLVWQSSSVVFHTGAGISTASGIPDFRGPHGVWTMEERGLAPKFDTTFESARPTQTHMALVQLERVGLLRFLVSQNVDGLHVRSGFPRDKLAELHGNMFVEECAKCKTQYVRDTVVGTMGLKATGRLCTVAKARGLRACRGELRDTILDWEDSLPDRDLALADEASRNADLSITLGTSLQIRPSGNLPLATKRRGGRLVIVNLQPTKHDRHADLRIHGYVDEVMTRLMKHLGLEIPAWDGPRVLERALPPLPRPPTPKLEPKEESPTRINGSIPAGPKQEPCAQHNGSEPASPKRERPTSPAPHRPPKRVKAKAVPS
UniProt P61244: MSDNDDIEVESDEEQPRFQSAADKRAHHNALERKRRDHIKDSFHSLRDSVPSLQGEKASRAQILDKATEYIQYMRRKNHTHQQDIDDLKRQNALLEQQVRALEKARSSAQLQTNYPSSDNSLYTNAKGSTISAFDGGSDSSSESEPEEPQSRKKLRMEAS
UniProt P01106: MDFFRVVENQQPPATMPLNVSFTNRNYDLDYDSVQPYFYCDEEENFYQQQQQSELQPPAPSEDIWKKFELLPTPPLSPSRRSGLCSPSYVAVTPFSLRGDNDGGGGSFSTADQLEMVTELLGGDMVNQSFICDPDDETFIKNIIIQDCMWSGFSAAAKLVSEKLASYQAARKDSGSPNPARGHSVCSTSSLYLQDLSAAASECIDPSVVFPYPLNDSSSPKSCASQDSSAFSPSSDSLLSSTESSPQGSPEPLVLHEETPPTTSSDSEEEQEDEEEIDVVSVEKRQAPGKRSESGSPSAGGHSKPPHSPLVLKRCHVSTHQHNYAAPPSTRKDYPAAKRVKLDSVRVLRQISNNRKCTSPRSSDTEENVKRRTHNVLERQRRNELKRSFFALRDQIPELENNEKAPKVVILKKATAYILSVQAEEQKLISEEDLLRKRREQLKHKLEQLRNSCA

These are yes or no findings as the source states them, for the method shown. In cells and extracts the contact can be indirect. Some results given as binding are weak or reduced against the parent protein; the word gives no strength. For some of these results: Where a sequence is shown, tags or fusion partners need not be part of it.

In assay [1] the target is T1, His-tagged GCIP (UniProt O95273).
T1 sequence: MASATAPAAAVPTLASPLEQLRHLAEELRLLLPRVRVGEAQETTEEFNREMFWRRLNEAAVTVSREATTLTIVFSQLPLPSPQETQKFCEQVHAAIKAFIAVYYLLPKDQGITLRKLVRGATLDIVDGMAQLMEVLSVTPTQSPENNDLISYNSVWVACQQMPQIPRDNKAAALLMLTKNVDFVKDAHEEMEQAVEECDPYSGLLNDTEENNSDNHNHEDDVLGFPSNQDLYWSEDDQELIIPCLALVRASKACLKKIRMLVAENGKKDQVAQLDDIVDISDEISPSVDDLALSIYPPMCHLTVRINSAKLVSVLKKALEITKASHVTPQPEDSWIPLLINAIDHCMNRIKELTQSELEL
The assay can be described thus: proximity ligation; A549 cells transfected with GCIP-His for 24 h; Duolink PLA mouse/rabbit kit; anti-His tag with anti-c-Myc, anti-Max or anti-SIRT6; also with si-Max.

The target of a further assay is T2, recombinant GST-GCIP (UniProt O95273).
T2 sequence: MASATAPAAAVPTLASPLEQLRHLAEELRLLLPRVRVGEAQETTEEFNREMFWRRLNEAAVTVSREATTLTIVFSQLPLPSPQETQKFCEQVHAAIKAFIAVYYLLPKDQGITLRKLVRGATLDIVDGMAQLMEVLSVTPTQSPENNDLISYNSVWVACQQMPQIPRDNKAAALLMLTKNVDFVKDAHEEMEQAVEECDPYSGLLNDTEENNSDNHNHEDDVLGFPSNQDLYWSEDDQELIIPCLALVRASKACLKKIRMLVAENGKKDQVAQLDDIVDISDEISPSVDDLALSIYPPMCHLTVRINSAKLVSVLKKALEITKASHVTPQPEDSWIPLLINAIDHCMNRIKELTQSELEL
Nature of the assay: pull-down; cell lysates pulled down by recombinant GST-GCIP in vitro, Western blot; only the target purified. (In general: In western blotting, separated proteins are transferred to a membrane and probed.)

Assay [2] addresses T1, His-tagged GCIP. The assay can be described thus: pull-down; Nickel sepharose pull-down of GCIP-His from lysates of cells transfected for 24 h, Western blot; also after si-SIRT6 (24 h).
The target in assay [3] is Sirtuin 6 (SIRT6), endogenous (human (endogenous in MKN-45 and A549)) (UniProt Q8N6T7). Nature of the assay: proximity ligation; cells transfected with si-GCIP or si-SIRT6 for 24 h, then PLA.
Assay [4] has the same target. The assay can be described thus: co-IP; endogenous proteins; 2 mg cell extract (MKN-45, A549) with 1 ug anti-c-Myc or anti-SIRT6 and protein G agarose beads, 4 °C overnight, Western blot; also after si-GCIP (24 h).
Assay [5] shares this target. The assay is described as above. This is another data set of the same source.

With “Max, endogenous (from UniProt P61244 1-160)”, the binding entry with His-tagged GCIP [1] is reported as “binds”.

As to “Sirtuin 6 (SIRT6), endogenous (from UniProt Q8N6T7 1-355)”, the binding entry with recombinant GST-GCIP, with His-tagged GCIP [2] and in the assay with His-tagged GCIP [1] was “binds” throughout.

In the case of “c-Myc, endogenous (from UniProt P01106 1-454)”, the binding entry in assay [3] and in assay [4] was “binds” each time.

B1: Grap2 and CyclinD1 interacting protein (GCIP), endogenous (protein, UniProt O95273 1-360)
chain: MASATAPAAAVPTLASPLEQLRHLAEELRLLLPRVRVGEAQETTEEFNREMFWRRLNEAAVTVSREATTLTIVFSQLPLPSPQETQKFCEQVHAAIKAFIAVYYLLPKDQGITLRKLVRGATLDIVDGMAQLMEVLSVTPTQSPENNDLISYNSVWVACQQMPQIPRDNKAAALLMLTKNVDFVKDAHEEMEQAVEECDPYSGLLNDTEENNSDNHNHEDDVLGFPSNQDLYWSEDDQELIIPCLALVRASKACLKKIRMLVAENGKKDQVAQLDDIVDISDEISPSVDDLALSIYPPMCHLTVRINSAKLVSVLKKALEITKASHVTPQPEDSWIPLLINAIDHCMNRIKELTQSELEL
B1: the binding entry in assay [5] is “binds”.
